Reference: PMC11555707, “Histone deacetylase 7 activates 6-phosphogluconate dehydrogenase via an enzyme-independent mechanism that involves the N-terminal protein-protein interaction domain” (Biochemical Journal, 2024)
No constants are given. Whether binding was seen depends on the method and setting. Binding seen in cells or lysates may run through a third protein. Some binding calls cover weakened binding; strength is not graded here. Where a sequence is shown, tags or fusion partners need not be part of it.

Chains of the proteins cited; added tags and fusions are not shown.
UniProt P40646: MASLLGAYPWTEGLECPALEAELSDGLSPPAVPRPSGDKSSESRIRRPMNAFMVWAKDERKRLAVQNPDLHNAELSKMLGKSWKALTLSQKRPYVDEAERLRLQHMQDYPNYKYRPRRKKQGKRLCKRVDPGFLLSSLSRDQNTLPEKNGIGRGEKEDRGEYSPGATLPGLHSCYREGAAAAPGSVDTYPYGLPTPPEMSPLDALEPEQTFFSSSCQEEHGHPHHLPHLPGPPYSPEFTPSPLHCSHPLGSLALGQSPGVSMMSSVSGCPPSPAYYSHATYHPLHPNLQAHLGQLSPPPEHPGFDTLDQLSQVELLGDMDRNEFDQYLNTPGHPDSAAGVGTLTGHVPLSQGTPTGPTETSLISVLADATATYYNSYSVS

Columns and labels:
[1] = target: T1, 6-phosphogluconate dehydrogenase (6PGD), Flag-tagged (mouse) (UniProt Q9DCD0); test: co-IP; HEK293 cells co-transfected 1:1 (6PGD:HDAC or SOX7) for 24 h; lysed in RIPA or mild lysis buffer; lysates immunoprecipitated with anti-Flag (6PGD as bait) and Dynabeads Protein G; immunoblot with anti-V5 and anti-Flag
T1 sequence: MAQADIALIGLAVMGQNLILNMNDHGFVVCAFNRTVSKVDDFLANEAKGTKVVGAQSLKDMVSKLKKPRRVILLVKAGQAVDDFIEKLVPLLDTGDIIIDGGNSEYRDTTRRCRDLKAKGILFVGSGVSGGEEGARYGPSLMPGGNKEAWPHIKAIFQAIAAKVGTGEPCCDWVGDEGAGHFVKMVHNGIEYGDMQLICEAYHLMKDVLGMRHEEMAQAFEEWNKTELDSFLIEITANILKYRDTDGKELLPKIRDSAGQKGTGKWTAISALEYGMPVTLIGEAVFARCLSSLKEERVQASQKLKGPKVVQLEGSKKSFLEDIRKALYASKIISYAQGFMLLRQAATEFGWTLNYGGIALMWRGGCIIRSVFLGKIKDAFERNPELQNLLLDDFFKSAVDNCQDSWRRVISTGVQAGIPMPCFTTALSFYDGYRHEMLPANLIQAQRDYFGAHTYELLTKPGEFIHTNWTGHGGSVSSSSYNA

[2] = target: T2, Histone deacetylase 6, V5-tagged (mouse) (UniProt Q9Z2V5); test: co-IP; HEK293 cells co-transfected 1:1 (6PGD:HDAC) for 24 h; lysed in RIPA or mild lysis buffer; lysates immunoprecipitated with anti-V5 (HDAC as bait) and Dynabeads Protein G; immunoblot with anti-Flag and anti-V5
T2 sequence: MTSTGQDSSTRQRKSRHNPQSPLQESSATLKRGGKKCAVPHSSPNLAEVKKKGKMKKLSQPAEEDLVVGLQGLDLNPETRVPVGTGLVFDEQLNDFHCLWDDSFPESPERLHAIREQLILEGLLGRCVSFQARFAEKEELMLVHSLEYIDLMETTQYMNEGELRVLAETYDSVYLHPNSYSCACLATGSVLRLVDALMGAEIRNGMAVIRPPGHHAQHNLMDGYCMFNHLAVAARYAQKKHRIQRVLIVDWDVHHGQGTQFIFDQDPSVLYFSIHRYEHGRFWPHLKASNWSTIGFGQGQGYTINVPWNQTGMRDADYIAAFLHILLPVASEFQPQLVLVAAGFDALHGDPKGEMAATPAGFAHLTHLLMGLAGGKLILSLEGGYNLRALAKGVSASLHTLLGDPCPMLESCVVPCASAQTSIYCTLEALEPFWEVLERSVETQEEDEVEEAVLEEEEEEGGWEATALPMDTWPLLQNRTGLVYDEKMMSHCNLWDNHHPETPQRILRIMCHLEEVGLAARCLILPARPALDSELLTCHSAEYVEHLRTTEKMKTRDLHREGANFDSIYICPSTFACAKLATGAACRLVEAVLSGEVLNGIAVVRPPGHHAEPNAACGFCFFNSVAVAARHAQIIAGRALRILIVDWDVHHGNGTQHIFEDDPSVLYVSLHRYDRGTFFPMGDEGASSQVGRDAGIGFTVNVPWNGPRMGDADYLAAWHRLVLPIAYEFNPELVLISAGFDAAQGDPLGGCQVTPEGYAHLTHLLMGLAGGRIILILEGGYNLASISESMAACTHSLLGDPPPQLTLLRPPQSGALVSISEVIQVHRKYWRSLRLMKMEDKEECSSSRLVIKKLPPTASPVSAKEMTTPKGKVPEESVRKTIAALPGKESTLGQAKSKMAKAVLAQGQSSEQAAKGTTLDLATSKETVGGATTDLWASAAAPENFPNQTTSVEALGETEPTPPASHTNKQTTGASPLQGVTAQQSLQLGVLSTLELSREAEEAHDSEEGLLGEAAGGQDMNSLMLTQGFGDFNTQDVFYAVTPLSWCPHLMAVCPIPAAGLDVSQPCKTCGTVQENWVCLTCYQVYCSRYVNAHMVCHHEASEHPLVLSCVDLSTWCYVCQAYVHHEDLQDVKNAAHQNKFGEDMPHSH

[3] = target: T1, 6-phosphogluconate dehydrogenase (6PGD), Flag-tagged (mouse); test: cross-linking; lysates of transfected HEK293 cells (50 mM HEPES, 150 mM NaCl, 0.5% Triton X-100) incubated with 0.025% glutaraldehyde for 15 min at room temperature, quenched with 50 mM Tris-HCl; immunoblot

Row | Molecule | binding [1] | binding [2] | binding [3]
1 | SOX7, V5-tagged (unrelated control protein) (from UniProt P40646 1-380) | no binding | – | –
2 | 6-phosphogluconate dehydrogenase (6PGD), Flag-tagged (enzyme, mouse, UniProt Q9DCD0 1-483, looked up, mouse 6-phosphogluconate dehydrogenase (6PGD); A shorter ~40 kDa form (6PGD-s), also detected by anti-Flag, arises in the same cells; also called full-length 6PGD; source: HEK293, transfected (pCMV-based construct), in lysate) MAQADIALIGLAVMGQNLILNMNDHGFVVCAFNRTVSKVDDFLANEAKGTKVVGAQSLKDMVSKLKKPRRVILLVKAGQAVDDFIEKLVPLLDTGDIIIDGGNSEYRDTTRRCRDLKAKGILFVGSGVSGGEEGARYGPSLMPGGNKEAWPHIKAIFQAIAAKVGTGEPCCDWVGDEGAGHFVKMVHNGIEYGDMQLICEAYHLMKDVLGMRHEEMAQAFEEWNKTELDSFLIEITANILKYRDTDGKELLPKIRDSAGQKGTGKWTAISALEYGMPVTLIGEAVFARCLSSLKEERVQASQKLKGPKVVQLEGSKKSFLEDIRKALYASKIISYAQGFMLLRQAATEFGWTLNYGGIALMWRGGCIIRSVFLGKIKDAFERNPELQNLLLDDFFKSAVDNCQDSWRRVISTGVQAGIPMPCFTTALSFYDGYRHEMLPANLIQAQRDYFGAHTYELLTKPGEFIHTNWTGHGGSVSSSSYNA | – | no binding | binds
